These results are taken from PubChem BioAssay AID1508600 (Functional Genomics Laboratory (NCATS/FGL), 2020).

In all, about 53,000 sequences went through this assay and about 3,700 (7%) were called active.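 The calls were made as follows: active = gene knockdowns whose robust z-score for IL-1 alpha signal is at least 2 or at most -2, so actives lie on both sides; inactive = the rest.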 This is one part of the list.

The assay can be described thus: Components of the Cytosolic LPS Sensing Pathway: Gene Identification via Genome-wide siRNA Screen. As to conditions: RAW264.7 macrophages, IL-1a HTRF, actives lie on both sides, screened at 100 nM (by protocol), cells primed 5 h with Pam3CSK4 first. The text has this: Non-canonical inflammasome activation by cytosolic LPS is a critical component of the host response to Gram-negative bacterial infection, however we lack a comprehensive understanding of the cellular processes that control this pathway. Here we describe a genome-wide siRNA screen to identify genes regulating the mouse macrophage IL-1 alpha response to cytosolic LPS.
RAW264.7 cells were maintained in complete DMEM media, comprising DMEM with 4.5 g/L glucose, 10% FBS (Gemini Bio-Products, West Sacramento, CA), 2 mM Glutamine (Lonza) and 20 mM HEPES (Lonza), hereafter complete DMEM.
The RNAi screen was conducted in 384-well format using the Ambion Silencer Mouse Genome siRNA Library (#4391425), which consists of three unique, nonoverlapping, nonpooled siRNAs for each of 17,000 gene targets. siRNA reagents ([…]) were stamped into 384-well white flat-bottom microplates (Corning, 3570) using a Velocity11 VPrep liquid handling system (Agilent) integrated into a BioCel robotic platform (Agilent) in columns 1-22, leaving columns 23-24 empty for negative (Ambion, Negative control #1) and positive (mouse Casp4) controls, respectively. The median value of each plate's negative control column was used to normalize sample wells, and the positive control was used to assess transfection efficiency and assay performance.
Lipofectamine RNAiMAX Transfection Reagent ([…]; Invitrogen) was added in […] serum-free, antibiotic-free media to plate wells using a Thermo Scientific Matrix WellMate and Microplate Stacker. Plates were incubated for 45 min at room temperature to allow for the sufficient formation of siRNA-lipid complexes. Cells were seeded at a density of 1x10^4 cells per well in 20 microL media containing 20% (vol/vol) FBS without antibiotics. The final concentration of siRNA in each well was 100 nM. Cells were cultured for 48h at 37 degrees C in 5% CO2 before addition of […] of TLR ligand Pam3CSK4 for 5 hours. The medium was then removed, replaced with […] growth media and cell were transfected with […] of LipidA and TransIT-TKO (Mirus) for 24 hour. At the end of the LipidA treatment, […] of supernatant was transferred to a 384 Greiner Bio-one non-binding low volume plate and […] of IL-1a HTRF reagent (Cisbio, 62MIL1APEH) was added and incubated at room temperature overnight. The plates were read on an EnVision plate reader (PerkinElmer). Cell viability was measured by adding 20ul Cell Titer Glo to the original plate and running a luminescence read on the EnVision. The quantified IL-1a signal for each siRNA gene-targeted well was divided by the median of the negative control wells and multiplied by 100 to achieve a negative control normalized value for each well/siRNA. This normalized value was then used to generate a robust z-score by first taking the log of each value and then by subtracting the median and dividing by the […].
(In general: TR-FRET usually uses a lanthanide donor and a delayed reading to cut background.)
Regarding GGCUGGACUUUCAGCUGAUTT against Sema6d, the z-score was inactive: 0.993.
The figure for GAUUGCCAAAGACAAAAGCTT against Vmn1r212 is inactive: 0.401; for GCUUAGACUCACCAAAGGCTT against Gpr26 it is inactive: 0.475.
As for GGAGCUGGACGACUACUAUTT against Ing1, the z-score was inactive: -0.0369.
The figure for CCCACUGAUGAUUACGUUCTT against Irf5 is inactive: -0.247; for GGUGAUCUUAGUGGAGGGCTT against Ppox it is inactive: 0.854; for GGGUAAAAGUAGCUGCCCUTT against Trp53inp2 it is inactive: -0.401.
For GGCUCCAGAAGGAACUUUCTT against Socs2, the z-score is inactive: -0.317.
GGACAAGAAGCAUCUUUCATT against Smpdl3a: the z-score was inactive: -1.16.
For CCCAGCUCUGUUUAAUGAUTT against Klf8, the z-score is inactive: -0.449.
For CCAACUCGUGAUUCUAGACTT against Tmed10 the value was inactive: 1.27.
For the sequence GGGCUUACCGUAUAACUUUTT against Nptn, the z-score is inactive: 1.4.
Regarding GGUCCUACUAUAACCUGCGTT against Gdf3, the z-score is inactive: -0.103.
Regarding GGAGGGAAGAAACAAUCUATT against Rnf40, the z-score is inactive: 0.497.
GGAAACUAUGGGCAAGUAATT against Olfr1239: the z-score was inactive: 0.153.
For GGUCAUCAAAUUCCUAAUCTT against Lrrc8c, the z-score is inactive: 0.116.
The figure for GGUGAGUAUAUUCAAGUUATT against Ndor1 is active: 4.36; for CCUUAGACUGUUCAGUCCUTT against Spryd4 it is inactive: 0.233; for AAAAGCUUCACCUAACUAUTT against Ascc1 it is inactive: 1.73.
In the case of GGUGACUCGGCUAUUUUCCTT against Ccdc22, the z-score is inactive: 0.756.
As to GGCAGCUGAUUUUUGAUGATT against Agbl2, the z-score was inactive: -1.
GGUUUUACCACAGAUUUGCTT against Olfr263: the z-score was inactive: 0.606.
As for GGCUUCUAUUUGUUUCCUGTT against Cbl, the z-score is inactive: 0.353.
GGUCAUAUAGGGAUACUUATT against Dhrs2: the z-score is inactive: -1.13.
Consider GGAAACCAUUGAAGAUGUUTT against Psmd13, for which the z-score was inactive: -1.2.
For AAUCCAAGGGCCGGCCUCATT against Hs3st6, the z-score was inactive: -0.726.
For GGCAUGAUCAUGCAUGUGATT against Hils1 the value was inactive: 0.707; for GGCUACCAGAAAGAUGUGUTT against Cdcp2, inactive: -0.0624.
For CGGUUUCAGUCUUUUGGAUTT against Cd84 the value was inactive: -0.0778.
With GGGAAUCCAUUAUUGCUGATT against Spata32, the z-score is inactive: -0.199.
Regarding GGUGAUGUAUUAUUAUCCATT against Defb12, the z-score is inactive: 0.277.
For GGCCCUUUAUUUUGAGUACTT against Cp, the z-score was inactive: -0.749.
Turning to GCAUGUUAGGUGCUGUGCATT against Slc35e2, the z-score was inactive: 0.659.
In the case of GCAUAGUAGGAUCUGUCUUTT against Tdpoz5, the z-score is inactive: 0.26.
The figure for GGAAUCCUGCUGUGGUGUUTT against Cyp2c65 is inactive: 1.
In the case of GCGAUGAUGUACAAAAGGGTT against Jph3, the z-score was inactive: -0.156.
As for CGGUUCCAUUCUACAUUUUTT against Scpep1, the z-score was inactive: 0.541.
The figure for GGGUUUUUGUGGGUCUAGGTT against Lta is inactive: 0.236; for GCAGCUGGAUAUCAUAAAATT against Ccdc162 it is inactive: -1.27.
Take GGUCGUCGUGAGAUCUUAUTT against Prlhr: the z-score is inactive: -0.342.
GGACAUGUUCAAUGUGAAUTT against Dhrs11: the z-score is inactive: 0.252.
Consider GGGUUUGAGGACUUGAUGATT against Strada, for which the z-score was inactive: -0.145.
CCUAUCAGACUGUAAUAAGTT against Kdm2b: the z-score is inactive: -0.404.
Consider GCUGACGAAAUCAAGAACCTT against Sox9, for which the z-score is inactive: 0.712.
For the sequence GGAAGGAUAUGAGAAUUUCTT against Nt5c3, the z-score was active: 2.51.
On to GGGAACAAAGAAUUUUACATT against Msl1, for which the z-score was inactive: 0.15.
For GGACAUAUUGGAUGGUGAUTT against Usp2 the value was inactive: -0.847.
The figure for GCUUCUUGAAAGUACAUUGTT against Nae1 is inactive: 0.386; for GCCUGUUCCAGAAUUGCUATT against Bcl7c it is inactive: -1.44.
Consider GCUAAGUAAGGUGGUAUAUTT against Dgka, for which the z-score was inactive: -1.03.
Take GGAACAAAGAUGUCAAGUCTT against Olfr521: the z-score is inactive: 1.59.
On to GCCAUCAUGCUUUCAUGACTT against Tspo, for which the z-score was inactive: 0.143.
The figure for GGAAGAAAGGAGAAAACCATT against Rars is inactive: -1.53; for GCCUUCCAACGAAGUUAAUTT against Epha3 it is inactive: 0.214; for GGAGUGCGGACGAUAAUACTT against Ppp1r3f it is inactive: -1.97.
Regarding GGAGGUGGUCCAGAAUUUUTT against Cotl1, the z-score is inactive: 0.633.
The figure for GGCACCAGCUCAUUAUCAATT against Npy4r is inactive: -0.54; for GGCACAAAGGCAGUUAUUCTT against Lage3 it is inactive: -0.181; for GGAAUAUUCAGAAUCCCUCTT against Tnfaip8l3 it is inactive: -0.762.
For CGUUGAUCCUUUCUAACAUTT against Olfr888, the z-score is inactive: -1.73.
The figure for GGCAGUGGGAAGUCUUUCATT against Kif17 is inactive: 0.287.
The figure for GGUGGAAGCCGAAGUAUCUTT against Krt15 is inactive: 0.655; for GCUCAAGGACUUACGCAACTT against Zfp668 it is inactive: -1.61; for GGUCUUCGUGGACAUUCCATT against Arrdc2 it is inactive: 1.05.
For GCAGCCAAUGGGUUCGCUUTT against Hoxa3 the value was inactive: 1.13; for GCGGAACUGAUUUAGUUCATT against Kazald1, inactive: 0.992; for CGGAGUUCAGCAUUUACCCTT against Shld2, inactive: 0.428.
Regarding GCAACACGUCUUCUUUGCATT against Hadh, the z-score is inactive: -0.824.
On to GCUACUAUAGCAACCUAACTT against Eef2k, for which the z-score was inactive: -0.97.
GGUUGCCCAAAACUCUAGATT against Elovl7: the z-score is inactive: 0.793.
The figure for GGCAUGUUCUCUAAGGAAGTT against Gm4814 is inactive: -0.533.
The figure for GGAUGUGCCCAAGGACAAGTT against Foxc2 is inactive: 0.779.
As for GGAUGUCAAAUCUUCCAUATT against Olfr971, the z-score was inactive: -0.447.
Turning to GGUCGAGGACAAAAAAAAATT against Dner, the z-score was active: -2.27.
For “GGCUCACUCAUCAAUUCCCTT against 2210010C04Rik” the value was inactive: -0.432.
With GGAAAAGAGGAGUGAAAUCTT against Tmsb10, the z-score was inactive: -1.08.
In the case of GCAAAGGAGGCUUCUAUUGTT against Olfr380, the z-score is inactive: -0.803.
Turning to GGAUAGUCUUUCCAGAUGGTT against Slamf7, the z-score was inactive: -1.26.
GGUCACCAUCAUCAUCAAUTT against Carmil1: the z-score was inactive: 0.484.
As for GGUGAAAAGUCUCUGAAUGTT against Pbk, the z-score was inactive: 0.253.
With CCAGGAAUGACACGGGAUGTT against Mdh2, the z-score is inactive: 1.99.
GGUCAACAAUCACUUUUUCTT against Pip4k2c: the z-score is inactive: -0.794.
For the sequence “CGACUGAUAGAUGAGUAAATT against C130026L21Rik”, the z-score is inactive: 0.424.
With “GGACAGGAAGAAAAGAAACTT against Vmn2r-ps11”, the z-score is inactive: -1.19.
Turning to GCAGCUUCAAGAGAGCCAUTT against Rhbdl1, the z-score was inactive: -0.604.
GCCUAUGGACCAGUUAGAUTT against Nono: the z-score is inactive: -0.786.
Regarding CGGUCUGCUCUACAUUGUCTT against Nek4, the z-score is inactive: 1.39.
For CCUCAGUACGUGCAGUAUGTT against Mos the value was inactive: -0.447.
Turning to GGGAAGGCUGAAUGACUGCTT against Vamp5, the z-score is inactive: 0.257.
Turning to GGUGCUGGAGAAAACCUUGTT against Gdpd1, the z-score was inactive: -1.09.
For the sequence GCAAUCCAUUGAAAGAGGCTT against Hps3, the z-score is inactive: -1.17.
On to GCGACUAGUAGUGCAUGAATT against Wdr13, for which the z-score is inactive: -0.434.
For the sequence GAGCUCUUGGUGGAUCAUCTT against Foxo3, the z-score is inactive: -0.62.
For GGCGGUUUUUUGUCUAUGCTT against Serpina1e, the z-score is inactive: -0.503.
For GGAAAUCUUCAAACUUAGATT against Tlk2 the value was inactive: 0.743; for GGAUUUUGAGAAGAACAAUTT against Eloa, inactive: 1.29; for GGGUCAGUGACUAAGCUUCTT against Abca7, inactive: -0.107.
With CGGGACUAUUAUUACUCCATT against Ap2m1, the z-score was inactive: -1.22.
CGAAUACAACCAGUUUCUGTT against Adam11: the z-score was inactive: 0.235.
For GCUGACUCCAUCCUAACAGTT against Cideb the value was active: -2.6; for GGAGGAUAUGAGCAAGUACTT against Isg20, inactive: -0.476; for GGAAUCCUCUAAAUGACCUTT against Vmn1r174, inactive: -1.49.
With CCUUGAAUCGGCCCUGAAATT against Cfap57, the z-score is inactive: -0.252.
For the sequence GGCAGCGAAAGUUUUCAAGTT against Pcdhga12, the z-score is inactive: 0.721.
With GGACUGAAUCUUUAAAGGUTT against Nkx1-2, the z-score is inactive: 0.199.
In the case of GGUACUGAUUGCUUUCUCUTT against Olfr1491, the z-score is inactive: -1.55.
Take GGAGGACAACAAGUACUGCTT against Smap1: the z-score is inactive: -1.08.
